Consider 23 sequences from paper PMC7819943, “Rice protein-binding microarrays: a tool to detect cis-acting elements near promoter regions in rice”.

The list shows a part of the results.

This assay has as its target T1, OsSMF1 (Oryza sativa, UniProt Q6ZLB0 1-436).
T1 sequence: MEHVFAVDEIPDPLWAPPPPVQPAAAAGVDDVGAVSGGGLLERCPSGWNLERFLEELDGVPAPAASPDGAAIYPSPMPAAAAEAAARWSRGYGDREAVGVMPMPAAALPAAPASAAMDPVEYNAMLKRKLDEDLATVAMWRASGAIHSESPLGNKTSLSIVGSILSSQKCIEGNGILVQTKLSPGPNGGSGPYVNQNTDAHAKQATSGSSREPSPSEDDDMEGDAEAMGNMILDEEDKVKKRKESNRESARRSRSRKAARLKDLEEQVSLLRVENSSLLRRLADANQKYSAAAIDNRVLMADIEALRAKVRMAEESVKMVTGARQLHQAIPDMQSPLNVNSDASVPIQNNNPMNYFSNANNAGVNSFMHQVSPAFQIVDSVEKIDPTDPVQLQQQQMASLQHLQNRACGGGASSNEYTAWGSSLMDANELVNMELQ
The assay can be described thus: protein-binding microarray (RPBM); PBS, 2% BSA, 51.3 ng/ul salmon testes DNA, 50 uM zinc acetate, 200 nM TF, 25 C, 1 h; high values mean tight binding. The note with it: protein: recombinant; tags: N-terminal polyhistidine and DsRed monomer fusion (pET32a); chain copies: 2; label: CyDye5-dUTP incorporated in the synthesized complementary strand; 3' TTTTT single-stranded linker to array surface; dsDNA, one strand shown. In a few lines:
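The binding signal is fluorescence intensity per array feature (arbitrary units). Readings came from an Axon 4000B scanner after a washed, 2% BSA-blocked, double-stranded custom Agilent array had been incubated for 1 h at 25 °C with 200 nM protein and 50 µM zinc acetate. The protein was a Ni–NTA-purified transcription factor fused N-terminally to polyhistidine and DsRed, expressed in E. coli BL21-CodonPlus.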
With “GAAACAACTCCAGCATTCCATAATCATGACACATGTTTTCCGGAGTCACCTAGTGCAG”, the binding signal was 3380 fluorescence intensity (a.u.). Consider “GTTAATAATCCACGTTTTCCGATGCATCCATGACTCATTCCGGAGTCACCTAGTGCAG”, for which the binding signal was 7190 fluorescence intensity (a.u.).

Regarding “CACTGCCCATTCGCCACGTCCCCTAACGCTCCAGGTTTATCGGAGTCACCTAGTGCAG”, the binding signal was 11800 fluorescence intensity (a.u.).

As to “CAGCCACACGGCGACACGACACGTACGTTGCAAGCGAGTGCGGAGTCACCTAGTGCAG”, the binding signal was 3370 fluorescence intensity (a.u.).

As to “GAACTGTCCACGTTACCAGCCCGCATTGAATAACGCTTTGCGGAGTCACCTAGTGCAG”, the binding signal is 4200 fluorescence intensity (a.u.).

For “AATAATTAATTAATCATAGCTTGCAACTGCATATGTAGGGCGGAGTCACCTAGTGCAG”, the binding signal is 3790 fluorescence intensity (a.u.). With “TTTCACGAGAGCTTTCCCTTTAAATACATCGCTCGGCTCCCGGAGTCACCTAGTGCAG” the figure was 24500 fluorescence intensity (a.u.); with “ACGACCTGCACGTCGCCCTGCTTCATTGCATCTAATGACGCGGAGTCACCTAGTGCAG”, 3820 fluorescence intensity (a.u.); with “GGAACACTTGTCACATCATTAAGGTTGATGGTTAGCCCGACGGAGTCACCTAGTGCAG”, 3230 fluorescence intensity (a.u.). In the case of “CAGAGCGCGCGTGCGCCGCTGCCGCGTCACGCGCCAATCGCGGAGTCACCTAGTGCAG”, the binding signal was 9720 fluorescence intensity (a.u.).

Regarding “CTCACTGGTATGCTCACCACCACTTTAAGACTGTGTTTGTCGGAGTCACCTAGTGCAG”, the binding signal was 3730 fluorescence intensity (a.u.).

In the case of “AATATTGTGCACACACGATACTTCATAGGAATCTAGTGACCGGAGTCACCTAGTGCAG”, the binding signal was 3360 fluorescence intensity (a.u.). “GAGACGCGACGCCGCCCGATGGGTGACTGCCACGTGGCAGCGGAGTCACCTAGTGCAG”: the binding signal was 19100 fluorescence intensity (a.u.).

For “CGCCGCCGCAGCCTCCTATCCTCCCTAGTCCATCACCGCGCGGAGTCACCTAGTGCAG”, the binding signal is 3210 fluorescence intensity (a.u.).

With “CACTCACACACACACACAATACAACAAGCCTACAACTCATCGGAGTCACCTAGTGCAG”, the binding signal is 3330 fluorescence intensity (a.u.). Consider “GGCAGTCAAACCAACTCTCATACGAGCTCCTGGCGGTTGTCGGAGTCACCTAGTGCAG”, for which the binding signal is 3340 fluorescence intensity (a.u.). “GACGCTGTTGTCAGTCTTGATGACATCAGGTACGATGGTTCGGAGTCACCTAGTGCAG”: the binding signal is 5820 fluorescence intensity (a.u.). Regarding “TCGGGCCGGGCGGCCCATTTTGCCAGCTCTCCCCAAACCCCGGAGTCACCTAGTGCAG”, the binding signal is 3460 fluorescence intensity (a.u.). For the sequence “TCACGATTAATTATATCATCATTTTGTATCCTTTGATTTCCGGAGTCACCTAGTGCAG”, the binding signal is 3480 fluorescence intensity (a.u.). Turning to “TTTAAAATTTAATATCACTAATTATAGTTACAATCTCATCCGGAGTCACCTAGTGCAG”, the binding signal was 23300 fluorescence intensity (a.u.).

For “GTGGCTTCCTCCGCGGAGCACGAGTAGCTTGGCCCCTACCCGGAGTCACCTAGTGCAG”, the binding signal is 3160 fluorescence intensity (a.u.). The same measure for “AGAGCGGGTGGGAGGCGAAGTAGACAGGGGCGGGGCGCATCGGAGTCACCTAGTGCAG”: 3970 fluorescence intensity (a.u.).

With “CTCGGATTATCCGAGTCGGATAGCATATTAGCATCCTGTACGGAGTCACCTAGTGCAG”, the binding signal is 4220 fluorescence intensity (a.u.).
